Numbering of substitutions follows the chain as printed. These are yes or no findings as the source states them, for the method shown. Some results given as binding are weak or reduced against the parent protein; the word gives no strength. Values belong to the binder of their own block, whether it stands above or below them.
Key:
[1] = target: human CD47 on cells (SHP-77 tumor cells, human red blood cells, CCRF-CEM cells, human CD47 CHO-K1 stable cell line) (human) (UniProt Q08722); test: flow cytometry on human red blood cells, Alexa Fluor 647 goat anti-human IgG secondary antibody, geometric MFI [Continued) k]
[2] = target: human CD47 on cells (SHP-77 tumor cells, human red blood cells, CCRF-CEM cells, human CD47 CHO-K1 stable cell line) (human) (UniProt Q08722); test: flow cytometry on CHO-K1 cells over-expressing human CD47, Alexa Fluor 647 goat anti-human IgG secondary antibody, MFI [Continued) g]
[3] = target: human CD47 on cells (SHP-77 tumor cells, human red blood cells, CCRF-CEM cells, human CD47 CHO-K1 stable cell line) (human) (UniProt Q08722); test: flow cytometry on SHP-77 tumor cells, Alexa Fluor 647 goat anti-human IgG secondary antibody, geometric MFI [Continued) k]
[4] = target: cynomolgus CD47 on CHO-K1 stable cell line (cynomolgus); test: flow cytometry on CHO-K1 cells over-expressing cynomolgus CD47, Alexa Fluor 647 goat anti-human IgG secondary antibody, MFI [Continued) g]
[5] = target: human CD47 on cells (SHP-77 tumor cells, human red blood cells, CCRF-CEM cells, human CD47 CHO-K1 stable cell line) (human) (UniProt Q08722); test: flow cytometry on SHP-77 tumor cells, Alexa Fluor 647 goat anti-human IgG secondary antibody, geometric MFI [Continued) o]
[6] = target: human CD47 on cells (SHP-77 tumor cells, human red blood cells, CCRF-CEM cells, human CD47 CHO-K1 stable cell line) (human) (UniProt Q08722); test: flow cytometry on human red blood cells, Alexa Fluor 647 goat anti-human IgG secondary antibody, geometric MFI [Continued) o]
[7] = target: cynomolgus CD47 on CHO-K1 stable cell line (cynomolgus); test: flow cytometry on CHO-K1 cells over-expressing cynomolgus CD47, Alexa Fluor 647 goat anti-human IgG secondary antibody, MFI [Continued) i]
[8] = target: human CD47 on cells (SHP-77 tumor cells, human red blood cells, CCRF-CEM cells, human CD47 CHO-K1 stable cell line) (human) (UniProt Q08722); test: flow cytometry on CHO-K1 cells over-expressing human CD47, Alexa Fluor 647 goat anti-human IgG secondary antibody, MFI [Continued) i]
[9] = target: human CD47 on cells (SHP-77 tumor cells, human red blood cells, CCRF-CEM cells, human CD47 CHO-K1 stable cell line) (human) (UniProt Q08722); test: flow cytometry on SHP-77 tumor cells, Alexa Fluor 647 goat anti-human IgG secondary antibody, geometric MFI [Continued) n]
[10] = target: human CD47 on cells (SHP-77 tumor cells, human red blood cells, CCRF-CEM cells, human CD47 CHO-K1 stable cell line) (human) (UniProt Q08722); test: flow cytometry on human red blood cells, Alexa Fluor 647 goat anti-human IgG secondary antibody, geometric MFI [Continued) n]
[11] = target: cynomolgus CD47 on CHO-K1 stable cell line (cynomolgus); test: flow cytometry on CHO-K1 cells over-expressing cynomolgus CD47, Alexa Fluor 647 goat anti-human IgG secondary antibody, MFI [Continued) h]
[12] = target: human CD47 on cells (SHP-77 tumor cells, human red blood cells, CCRF-CEM cells, human CD47 CHO-K1 stable cell line) (human) (UniProt Q08722); test: flow cytometry on CHO-K1 cells over-expressing human CD47, Alexa Fluor 647 goat anti-human IgG secondary antibody, MFI [Continued) h]
[13] = target: human CD47 on cells (SHP-77 tumor cells, human red blood cells, CCRF-CEM cells, human CD47 CHO-K1 stable cell line) (human) (UniProt Q08722); test: flow cytometry on SHP-77 tumor cells, Alexa Fluor 647 goat anti-human IgG secondary antibody, geometric MFI [Continued) l]
[14] = target: human CD47 on cells (SHP-77 tumor cells, human red blood cells, CCRF-CEM cells, human CD47 CHO-K1 stable cell line) (human) (UniProt Q08722); test: flow cytometry on human red blood cells, Alexa Fluor 647 goat anti-human IgG secondary antibody, geometric MFI [Continued) l]
[15] = target: human CD47 on cells (SHP-77 tumor cells, human red blood cells, CCRF-CEM cells, human CD47 CHO-K1 stable cell line) (human) (UniProt Q08722); test: flow cytometry on human red blood cells, Alexa Fluor 647 goat anti-human IgG secondary antibody, geometric MFI [Continued) m]
[16] = target: human CD47 on cells (SHP-77 tumor cells, human red blood cells, CCRF-CEM cells, human CD47 CHO-K1 stable cell line) (human) (UniProt Q08722); test: flow cytometry on SHP-77 tumor cells, Alexa Fluor 647 goat anti-human IgG secondary antibody, geometric MFI [Continued) m]
[17] = target: cynomolgus CD47 on CHO-K1 stable cell line (cynomolgus); test: flow cytometry on CHO-K1 cells over-expressing cynomolgus CD47, Alexa Fluor 647 goat anti-human IgG secondary antibody, MFI

The chains behind the UniProt entries cited, without tags or fusion partners. Residues count along the entry.
UniProt Q08722, residues 19-323: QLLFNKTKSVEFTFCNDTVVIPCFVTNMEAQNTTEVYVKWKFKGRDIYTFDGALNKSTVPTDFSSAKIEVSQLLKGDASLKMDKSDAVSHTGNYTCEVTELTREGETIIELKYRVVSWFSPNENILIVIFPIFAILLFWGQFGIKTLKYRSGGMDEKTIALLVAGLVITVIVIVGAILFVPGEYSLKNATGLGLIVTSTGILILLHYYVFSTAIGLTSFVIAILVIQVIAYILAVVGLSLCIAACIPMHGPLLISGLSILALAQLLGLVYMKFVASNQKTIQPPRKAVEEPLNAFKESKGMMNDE

B1: 108VH10.Mk / 108VL10.Me (antibody, V domains shown)
VH: EVQLVESGGGLVQPGGSLRLSCAASGFTFSHHWIHWVRQAPGKGLEWVAMIDASDSETRLSQKVKDRFTISADTSKNTAYLQMNSLRAEDTAVYYCSRLGRYYFDYWGQGTLVTVSS
VL: DIQMTQSPSSLSASVGDRVTITCRASQSISSYLNWYQQKPGKAPKLLIYGASSRYSGVPSRFSGSRSGTDFTLTISSLQPEDFATYYCGESYGHLYTFGQGTKVEIK
binding [1]: binds
binding [2]: binds
binding [3]: binds
binding [4]: binds

B4: 108VH10.Mo / 108VL10.Me (antibody, V domains shown)
VH: B1 VH with Q62D, K63S, V64F, D66G
VL: B1 VL
binding [13]: binds
binding [14]: binds

B5: 108VH10.Mp / 108VL10.Me (antibody, V domains shown)
VH: B1 VH with S61V, Q62D, K63S, V64F, D66G
VL: B1 VL
binding [15]: binds
binding [16]: binds

B6: 108VH4.M4-VL1.M1 (antibody, V domains shown)
VH: EVQLVQSGAEVKKPGSSVKVSCKASGYSFTHHWIHWVRQAPGQGLEWMGMIDASDSETRLSQKFKDRVTITADKSTSTAYMELSSLRSEDTAVYYCARLGRYYFDYWGQGTTVTVSS
VL: EIVLTQSPATLSLSPGERATLSCRASENVGTYISWYQQKPGQAPRLLIYGASNRYTGIPARFSGSGSGTDFTLTISSLEPEDFAVYYCGESYGHLYTFGGGTKVEIK
binding [17]: binds

Further lines, results first:

binding [5]: binds
binding [6]: binds
binding [7]: binds
binding [8]: binds
B2: 108VH10.Mr / 108VL10.Me (antibody, V domains shown)
VH: B1 VH with S61V, Q62D, K63S, D66G
VL: B1 VL

binding [9]: binds
binding [10]: binds
binding [11]: binds
binding [12]: binds
B3: 108VH10.Mq / 108VL10.Me (antibody, V domains shown)
VH: B1 VH with Q62D, K63S, D66G
VL: B1 VL

Reference: US20260132197A1
